The target of experiment [1] is p300/CBP-associated factor (p/CAF), endogenous (human (endogenous in SCP2, SUM159 and HEK293)) (UniProt Q92831). The experiment can be described thus: co-IP; endogenous proteins; SCP2 and SUM159 cells treated with TGFβ; immunoprecipitation overnight at 4°C with antibodies against p300/CBP, p/CAF and p21, protein G-Sepharose, immunoblotting.
Experiment [2] has as its target 6× myc-Smad2 (UniProt Q15796). The experiment can be described thus: co-IP; HEK293 cells co-transfected with myc-Smad3, myc-Smad2 and p/CAF; Smad2/3 immunoprecipitated with an anti-myc antibody, Western blotting.
The target of experiment [3] is myc-Smad3 (UniProt P84022). The experiment is described as above.
Experiment [4] addresses flag-p21 (Flag-tagged human p21Cip1) (human) (UniProt P38936). The experiment can be described thus: co-IP; HEK293 and SCP2 cells co-transfected with myc-Smad2, myc-Smad3 and flag-p21, stimulated with TGFβ for 8 hrs; lysates immunoprecipitated with an anti-flag antibody, immunoblotted with Smad2/3 and p21 or flag antibodies.

The chains behind the UniProt entries cited, without tags or fusion partners.
UniProt Q92831: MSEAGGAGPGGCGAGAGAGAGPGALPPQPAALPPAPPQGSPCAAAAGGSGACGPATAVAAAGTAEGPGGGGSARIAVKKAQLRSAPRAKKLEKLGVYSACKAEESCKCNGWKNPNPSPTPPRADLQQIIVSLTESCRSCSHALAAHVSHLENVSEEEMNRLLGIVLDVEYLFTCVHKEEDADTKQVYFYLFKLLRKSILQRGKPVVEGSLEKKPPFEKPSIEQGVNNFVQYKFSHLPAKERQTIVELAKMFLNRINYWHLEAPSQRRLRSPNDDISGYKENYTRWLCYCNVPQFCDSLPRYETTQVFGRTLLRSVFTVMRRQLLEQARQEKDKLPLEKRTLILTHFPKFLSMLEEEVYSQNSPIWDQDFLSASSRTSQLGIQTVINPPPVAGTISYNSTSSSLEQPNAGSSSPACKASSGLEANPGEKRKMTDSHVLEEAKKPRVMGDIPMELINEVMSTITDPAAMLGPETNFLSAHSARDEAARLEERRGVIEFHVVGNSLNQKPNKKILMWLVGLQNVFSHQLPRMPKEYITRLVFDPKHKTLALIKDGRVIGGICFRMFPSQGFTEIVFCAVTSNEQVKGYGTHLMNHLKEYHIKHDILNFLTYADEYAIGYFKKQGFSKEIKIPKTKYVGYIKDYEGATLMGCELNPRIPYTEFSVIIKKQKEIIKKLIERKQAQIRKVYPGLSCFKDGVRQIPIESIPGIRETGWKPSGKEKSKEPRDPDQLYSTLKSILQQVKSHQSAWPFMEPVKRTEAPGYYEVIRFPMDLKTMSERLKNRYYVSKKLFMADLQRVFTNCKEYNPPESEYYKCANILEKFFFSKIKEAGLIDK
UniProt Q15796: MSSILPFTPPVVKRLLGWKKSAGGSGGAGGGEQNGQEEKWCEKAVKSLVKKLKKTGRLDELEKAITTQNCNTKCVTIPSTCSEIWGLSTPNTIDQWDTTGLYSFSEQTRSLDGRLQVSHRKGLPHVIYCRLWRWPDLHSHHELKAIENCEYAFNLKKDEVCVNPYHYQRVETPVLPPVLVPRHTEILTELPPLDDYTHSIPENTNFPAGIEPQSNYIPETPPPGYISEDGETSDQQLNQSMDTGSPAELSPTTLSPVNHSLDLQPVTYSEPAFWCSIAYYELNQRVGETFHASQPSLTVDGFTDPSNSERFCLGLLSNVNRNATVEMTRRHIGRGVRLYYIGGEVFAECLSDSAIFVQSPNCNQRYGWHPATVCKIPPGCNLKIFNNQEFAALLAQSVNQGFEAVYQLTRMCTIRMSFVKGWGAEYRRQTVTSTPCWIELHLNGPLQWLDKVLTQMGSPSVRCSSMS
UniProt P84022: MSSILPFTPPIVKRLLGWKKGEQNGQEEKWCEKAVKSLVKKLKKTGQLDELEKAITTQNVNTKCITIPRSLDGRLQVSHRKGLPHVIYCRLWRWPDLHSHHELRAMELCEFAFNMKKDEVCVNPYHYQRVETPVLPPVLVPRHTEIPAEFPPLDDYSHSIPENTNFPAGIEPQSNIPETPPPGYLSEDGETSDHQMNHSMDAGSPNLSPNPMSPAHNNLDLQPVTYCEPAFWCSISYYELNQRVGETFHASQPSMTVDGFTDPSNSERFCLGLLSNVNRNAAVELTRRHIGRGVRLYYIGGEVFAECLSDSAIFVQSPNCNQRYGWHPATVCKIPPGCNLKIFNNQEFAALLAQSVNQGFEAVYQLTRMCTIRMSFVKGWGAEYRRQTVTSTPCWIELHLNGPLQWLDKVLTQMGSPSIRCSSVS
UniProt P38936: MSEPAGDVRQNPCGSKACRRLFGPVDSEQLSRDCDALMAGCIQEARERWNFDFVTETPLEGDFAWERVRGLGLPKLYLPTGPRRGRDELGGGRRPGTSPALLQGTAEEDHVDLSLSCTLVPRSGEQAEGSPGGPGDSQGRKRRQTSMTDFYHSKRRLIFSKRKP

The results in this text go back to paper PMC4053104.

These are yes or no findings as the source states them, for the method shown. Binding seen in cells or lysates may run through a third protein. Some binding calls cover weakened binding; strength is not graded here.

“p21Cip1 (endogenous) (from UniProt P38936 1-164)”: in experiment [1], the binding entry was “binds”. As to “p/CAF (transfected, Addgene plasmid 8941) (from UniProt Q92831 1-832)”, the binding result in experiment [2] and in experiment [3] was “binds” in each case. With “6× myc-Smad2 (from UniProt Q15796 1-467)”, the binding entry in experiment [4] was “no binding”.
